Laboratory results: PMC7862700
The entries are a selection whose mix differs from that of the whole data set. At the low end of the ranking the order means little.

Chains of the proteins cited; added tags and fusions are not shown. Lines headed by an entry give the natural chain unless they say otherwise; changes in a name come on top.
UniProt Q01892: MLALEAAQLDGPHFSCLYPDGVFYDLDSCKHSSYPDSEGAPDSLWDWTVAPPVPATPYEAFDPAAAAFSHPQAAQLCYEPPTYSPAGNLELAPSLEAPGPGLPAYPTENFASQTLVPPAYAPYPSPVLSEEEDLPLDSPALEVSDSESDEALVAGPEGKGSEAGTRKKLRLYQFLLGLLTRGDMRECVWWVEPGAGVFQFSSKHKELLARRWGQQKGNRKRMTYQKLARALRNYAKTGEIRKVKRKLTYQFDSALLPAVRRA
UniProt P41161: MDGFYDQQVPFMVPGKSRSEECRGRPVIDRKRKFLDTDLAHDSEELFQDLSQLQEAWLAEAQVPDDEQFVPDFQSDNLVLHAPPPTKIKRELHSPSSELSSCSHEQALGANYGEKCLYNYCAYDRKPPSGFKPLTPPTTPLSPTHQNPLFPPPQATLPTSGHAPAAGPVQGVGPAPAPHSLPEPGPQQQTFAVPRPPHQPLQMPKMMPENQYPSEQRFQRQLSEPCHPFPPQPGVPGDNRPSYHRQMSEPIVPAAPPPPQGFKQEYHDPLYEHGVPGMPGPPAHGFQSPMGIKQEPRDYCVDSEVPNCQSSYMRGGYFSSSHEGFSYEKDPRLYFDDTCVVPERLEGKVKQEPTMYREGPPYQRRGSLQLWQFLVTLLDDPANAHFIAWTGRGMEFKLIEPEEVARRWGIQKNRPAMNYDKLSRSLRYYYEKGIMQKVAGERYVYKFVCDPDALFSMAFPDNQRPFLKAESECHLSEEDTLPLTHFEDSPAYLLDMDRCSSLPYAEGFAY
UniProt Q99607: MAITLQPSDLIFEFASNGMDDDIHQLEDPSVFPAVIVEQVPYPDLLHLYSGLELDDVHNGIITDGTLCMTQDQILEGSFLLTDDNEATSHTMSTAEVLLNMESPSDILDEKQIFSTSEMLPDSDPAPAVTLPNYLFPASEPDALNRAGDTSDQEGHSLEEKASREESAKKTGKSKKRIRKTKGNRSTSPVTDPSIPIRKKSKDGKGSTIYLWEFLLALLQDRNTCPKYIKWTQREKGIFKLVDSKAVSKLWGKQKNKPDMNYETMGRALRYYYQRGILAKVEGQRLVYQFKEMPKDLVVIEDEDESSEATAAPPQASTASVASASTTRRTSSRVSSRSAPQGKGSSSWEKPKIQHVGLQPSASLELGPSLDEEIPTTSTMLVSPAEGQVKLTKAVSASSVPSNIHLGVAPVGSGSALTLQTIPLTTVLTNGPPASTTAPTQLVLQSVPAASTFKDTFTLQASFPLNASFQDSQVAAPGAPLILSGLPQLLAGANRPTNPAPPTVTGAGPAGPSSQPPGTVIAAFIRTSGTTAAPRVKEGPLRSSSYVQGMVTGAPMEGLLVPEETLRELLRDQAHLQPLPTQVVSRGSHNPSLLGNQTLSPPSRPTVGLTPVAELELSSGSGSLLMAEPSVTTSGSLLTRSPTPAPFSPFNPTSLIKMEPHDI

How the values were obtained:
Assay in all cases: DAPPL (digital affinity profiling via proximity ligation, sequencing)
Settings in all cases: 10 mM Tris-HCl pH 7.5, 50 mM NaCl, 1 mM DTT, 4% glycerol, room temperature, 30 min; GST-TFs on glutathione beads, 16-mer random dsDNA library, 0.1% …; high values mean tight binding; double strand, one strand shown; scale: fold enrichment (6-mer frequency, TF over GST control)
FLI1 = target: T1, FLI1 (UniProt Q01543)
T1 sequence: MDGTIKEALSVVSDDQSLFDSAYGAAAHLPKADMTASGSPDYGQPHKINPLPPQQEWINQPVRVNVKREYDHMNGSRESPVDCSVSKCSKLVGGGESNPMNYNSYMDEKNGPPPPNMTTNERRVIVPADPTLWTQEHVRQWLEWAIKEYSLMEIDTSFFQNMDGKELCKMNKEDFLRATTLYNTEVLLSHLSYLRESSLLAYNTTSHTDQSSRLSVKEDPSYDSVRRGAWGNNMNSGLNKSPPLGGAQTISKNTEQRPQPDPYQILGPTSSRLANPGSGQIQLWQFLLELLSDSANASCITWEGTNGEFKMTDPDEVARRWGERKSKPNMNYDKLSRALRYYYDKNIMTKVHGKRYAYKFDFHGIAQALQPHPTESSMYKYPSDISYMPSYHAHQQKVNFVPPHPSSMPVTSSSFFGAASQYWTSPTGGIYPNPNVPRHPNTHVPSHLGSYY

EHF = target: T2, EHF (UniProt Q9NZC4)
T2 sequence: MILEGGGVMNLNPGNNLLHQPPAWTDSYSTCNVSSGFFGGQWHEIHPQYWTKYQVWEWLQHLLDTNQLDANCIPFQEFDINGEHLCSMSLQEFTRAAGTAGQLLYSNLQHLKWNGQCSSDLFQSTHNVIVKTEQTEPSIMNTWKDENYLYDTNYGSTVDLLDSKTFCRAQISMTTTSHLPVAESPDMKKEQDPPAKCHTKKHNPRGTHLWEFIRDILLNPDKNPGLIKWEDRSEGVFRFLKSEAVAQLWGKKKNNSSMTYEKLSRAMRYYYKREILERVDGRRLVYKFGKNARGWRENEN

SPIB = SPIB (UniProt Q01892)
ETV5 = ETV5 (UniProt P41161)
ELF4 = ELF4 (UniProt Q99607)
ETV2 = target: T3, ETV2 (UniProt O00321)
T3 sequence: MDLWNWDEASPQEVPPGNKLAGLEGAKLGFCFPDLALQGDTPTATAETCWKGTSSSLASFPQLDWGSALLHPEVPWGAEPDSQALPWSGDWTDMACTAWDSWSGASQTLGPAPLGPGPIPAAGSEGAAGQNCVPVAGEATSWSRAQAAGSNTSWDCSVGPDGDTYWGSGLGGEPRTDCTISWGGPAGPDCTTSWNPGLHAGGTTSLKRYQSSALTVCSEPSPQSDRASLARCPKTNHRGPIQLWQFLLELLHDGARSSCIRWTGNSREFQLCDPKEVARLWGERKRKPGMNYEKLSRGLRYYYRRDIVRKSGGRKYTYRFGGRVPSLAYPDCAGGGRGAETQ

ETV3L = target: T4, ETV3L (UniProt Q6ZN32)
T4 sequence: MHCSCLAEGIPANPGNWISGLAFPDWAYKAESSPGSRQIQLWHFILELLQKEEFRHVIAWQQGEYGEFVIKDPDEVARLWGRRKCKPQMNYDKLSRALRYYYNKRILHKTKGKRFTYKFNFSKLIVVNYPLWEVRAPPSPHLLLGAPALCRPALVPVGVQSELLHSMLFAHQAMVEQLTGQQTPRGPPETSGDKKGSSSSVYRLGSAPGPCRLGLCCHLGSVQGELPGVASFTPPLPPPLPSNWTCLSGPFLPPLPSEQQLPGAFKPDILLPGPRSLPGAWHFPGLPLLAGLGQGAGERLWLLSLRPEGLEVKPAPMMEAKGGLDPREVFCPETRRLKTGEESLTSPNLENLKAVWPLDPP

Row | Sequence | binding signal (FLI1) | binding signal (EHF) | binding signal (SPIB) | binding signal (ETV5) | binding signal (ELF4) | binding signal (ETV2) | binding signal (ETV3L)
1 | GCGTGA | 0.286 | 0.279 | 0.273 | 0.294 | 0.271 | 0.308 | 0.291
2 | ATCAGG | 0.99 | 0.93 | 0.975 | 0.954 | 0.929 | 0.856 | 0.937
3 | GGCATG | 0.883 | 0.795 | 0.853 | 0.801 | 0.879 | 0.942 | 0.892
4 | GACAGC | 0.774 | 0.844 | 0.803 | 0.788 | 0.753 | 0.77 | 0.791
5 | GATCGC | 0.946 | 0.894 | 0.788 | 0.887 | 0.911 | 0.978 | 0.849
6 | CAGGGG | 0.64 | 0.558 | 0.556 | 0.595 | 0.624 | 0.582 | 0.543
7 | GCACGT | 0.852 | 0.781 | 0.894 | 0.772 | 0.845 | 0.736 | 0.826
8 | AGGGTG | 0.768 | 0.774 | 0.809 | 0.829 | 0.76 | 0.728 | 0.715
9 | GCCAGC | 0.795 | 0.736 | 0.724 | 0.738 | 0.789 | 0.788 | 0.716
10 | CGCATC | 0.793 | 0.906 | 0.945 | 0.901 | 0.849 | 0.772 | 0.895
11 | AAGACC | 0.845 | 0.847 | 0.805 | 0.855 | 0.922 | 0.943 | 0.819
12 | GCAGAG | 0.711 | 0.667 | 0.601 | 0.647 | 0.667 | 0.727 | 0.677
13 | GTCGCT | 0.764 | 0.765 | 0.681 | 0.881 | 0.735 | 0.663 | 0.779
14 | GGCCAA | 0.849 | 0.789 | 0.737 | 0.832 | 0.885 | 0.812 | 0.828
15 | GGTAAG | 0.779 | 0.718 | 0.737 | 0.761 | 0.694 | 0.815 | 0.743
16 | GAGTCA | 0.264 | 0.287 | 0.246 | 0.297 | 0.28 | 0.296 | 0.29
17 | AGGACT | 0.895 | 0.934 | 0.899 | 0.889 | 0.959 | 0.968 | 0.999
18 | CGTAGG | 0.697 | 0.657 | 0.65 | 0.694 | 0.703 | 0.632 | 0.67
19 | GTCTGC | 0.96 | 0.957 | 0.951 | 0.825 | 0.872 | 0.849 | 0.957
20 | TCCGTG | 0.522 | 0.543 | 0.536 | 0.553 | 0.475 | 0.516 | 0.455
21 | GGAACC | 0.827 | 0.885 | 0.86 | 0.872 | 0.807 | 0.901 | 0.824

Row | Sequence | binding signal (FLI1) | binding signal (EHF) | binding signal (SPIB) | binding signal (ETV5) | binding signal (ELF4) | binding signal (ETV2) | binding signal (ETV3L)
22 | GGAGAA | 0.338 | 0.323 | 0.314 | 0.349 | 0.331 | 0.285 | 0.346
23 | GAGGCC | 0.426 | 0.418 | 0.435 | 0.389 | 0.438 | 0.451 | 0.412
24 | AGTCTA | 0.765 | 0.748 | 0.739 | 0.699 | 0.703 | 0.61 | 0.702
25 | ACGGGT | 0.837 | 0.881 | 0.758 | 0.904 | 0.883 | 0.825 | 0.796
26 | CGAGTC | 0.497 | 0.553 | 0.513 | 0.493 | 0.517 | 0.448 | 0.532
27 | CTAGAG | 0.829 | 0.873 | 0.767 | 0.83 | 0.909 | 0.921 | 0.849
28 | GGGAAG | 0.822 | 0.917 | 0.917 | 0.95 | 0.757 | 0.832 | 0.842
29 | GCATGA | 0.856 | 0.792 | 0.883 | 0.831 | 0.884 | 0.811 | 0.827
30 | ACGTGT | 0.643 | 0.663 | 0.632 | 0.666 | 0.637 | 0.607 | 0.622
31 | GTCAAG | 0.725 | 0.778 | 0.777 | 0.801 | 0.773 | 0.783 | 0.816
32 | AGCCGA | 0.798 | 0.792 | 0.792 | 0.768 | 0.836 | 0.893 | 0.881
33 | GGACGA | 0.608 | 0.672 | 0.64 | 0.633 | 0.61 | 0.65 | 0.664
34 | GAGGAC | 0.615 | 0.66 | 0.574 | 0.596 | 0.645 | 0.726 | 0.629
35 | AGTGGA | 0.756 | 0.841 | 0.739 | 0.746 | 0.723 | 0.823 | 0.767
36 | TGAGCG | 0.64 | 0.568 | 0.606 | 0.64 | 0.668 | 0.642 | 0.605
37 | CGGTTG | 0.743 | 0.794 | 0.742 | 0.805 | 0.722 | 0.804 | 0.782
38 | ACAGAG | 0.793 | 0.745 | 0.706 | 0.727 | 0.79 | 0.802 | 0.738
39 | GCGTAG | 0.908 | 0.805 | 0.783 | 0.792 | 0.805 | 0.943 | 0.832
40 | CGGGCG | 0.364 | 0.406 | 0.417 | 0.423 | 0.409 | 0.467 | 0.44
41 | GCTCGG | 0.823 | 0.72 | 0.786 | 0.775 | 0.799 | 0.702 | 0.778

A few values from above.
AGTCTA | binding signal (EHF): 0.748
GCGTAG | binding signal (ELF4): 0.805
